The other results are listed elsewhere or left out.

The chains behind the UniProt entries cited, without tags or fusion partners. Where a name states a change or a piece, a line headed by the entry shows the natural chain unless it says otherwise.
UniProt Q9NR77: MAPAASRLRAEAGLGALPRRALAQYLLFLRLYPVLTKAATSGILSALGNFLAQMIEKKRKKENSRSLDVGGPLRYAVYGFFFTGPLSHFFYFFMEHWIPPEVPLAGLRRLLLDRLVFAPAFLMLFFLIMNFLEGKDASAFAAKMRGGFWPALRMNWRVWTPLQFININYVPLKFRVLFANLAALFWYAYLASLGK
UniProt P78330: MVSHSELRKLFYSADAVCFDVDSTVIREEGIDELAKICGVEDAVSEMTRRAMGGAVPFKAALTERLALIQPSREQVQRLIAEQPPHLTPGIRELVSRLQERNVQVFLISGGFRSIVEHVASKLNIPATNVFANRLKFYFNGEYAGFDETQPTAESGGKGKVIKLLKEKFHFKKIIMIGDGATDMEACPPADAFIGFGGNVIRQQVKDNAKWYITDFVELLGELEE
UniProt Q9BXR0: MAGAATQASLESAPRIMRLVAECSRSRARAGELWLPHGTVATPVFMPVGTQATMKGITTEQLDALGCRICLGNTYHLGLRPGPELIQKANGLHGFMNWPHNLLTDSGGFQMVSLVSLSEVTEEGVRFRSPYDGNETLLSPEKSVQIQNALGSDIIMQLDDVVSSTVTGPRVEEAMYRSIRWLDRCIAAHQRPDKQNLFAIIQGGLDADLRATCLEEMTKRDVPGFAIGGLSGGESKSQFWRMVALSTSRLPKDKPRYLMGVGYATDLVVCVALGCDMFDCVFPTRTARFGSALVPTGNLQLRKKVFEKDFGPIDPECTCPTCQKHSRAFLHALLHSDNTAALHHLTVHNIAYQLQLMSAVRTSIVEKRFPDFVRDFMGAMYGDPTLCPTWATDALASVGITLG
UniProt Q96PZ0: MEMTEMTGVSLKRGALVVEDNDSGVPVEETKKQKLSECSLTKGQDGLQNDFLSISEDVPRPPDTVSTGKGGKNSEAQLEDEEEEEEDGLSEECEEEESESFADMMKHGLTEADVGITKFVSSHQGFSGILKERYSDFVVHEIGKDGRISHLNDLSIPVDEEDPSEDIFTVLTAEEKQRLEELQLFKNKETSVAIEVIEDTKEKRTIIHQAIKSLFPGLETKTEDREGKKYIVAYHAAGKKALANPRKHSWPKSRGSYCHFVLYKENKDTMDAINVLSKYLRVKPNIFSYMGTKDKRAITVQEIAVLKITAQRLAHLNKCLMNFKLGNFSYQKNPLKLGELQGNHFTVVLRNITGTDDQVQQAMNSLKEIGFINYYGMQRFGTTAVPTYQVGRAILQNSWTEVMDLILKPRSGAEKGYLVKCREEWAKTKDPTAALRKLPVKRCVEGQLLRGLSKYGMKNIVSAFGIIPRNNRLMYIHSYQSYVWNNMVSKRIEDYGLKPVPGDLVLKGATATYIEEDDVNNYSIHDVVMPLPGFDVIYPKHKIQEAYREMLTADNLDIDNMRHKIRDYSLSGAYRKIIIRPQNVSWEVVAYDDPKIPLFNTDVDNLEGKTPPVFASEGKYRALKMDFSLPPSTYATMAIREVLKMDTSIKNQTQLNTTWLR
UniProt P20742, whole entry, looked up: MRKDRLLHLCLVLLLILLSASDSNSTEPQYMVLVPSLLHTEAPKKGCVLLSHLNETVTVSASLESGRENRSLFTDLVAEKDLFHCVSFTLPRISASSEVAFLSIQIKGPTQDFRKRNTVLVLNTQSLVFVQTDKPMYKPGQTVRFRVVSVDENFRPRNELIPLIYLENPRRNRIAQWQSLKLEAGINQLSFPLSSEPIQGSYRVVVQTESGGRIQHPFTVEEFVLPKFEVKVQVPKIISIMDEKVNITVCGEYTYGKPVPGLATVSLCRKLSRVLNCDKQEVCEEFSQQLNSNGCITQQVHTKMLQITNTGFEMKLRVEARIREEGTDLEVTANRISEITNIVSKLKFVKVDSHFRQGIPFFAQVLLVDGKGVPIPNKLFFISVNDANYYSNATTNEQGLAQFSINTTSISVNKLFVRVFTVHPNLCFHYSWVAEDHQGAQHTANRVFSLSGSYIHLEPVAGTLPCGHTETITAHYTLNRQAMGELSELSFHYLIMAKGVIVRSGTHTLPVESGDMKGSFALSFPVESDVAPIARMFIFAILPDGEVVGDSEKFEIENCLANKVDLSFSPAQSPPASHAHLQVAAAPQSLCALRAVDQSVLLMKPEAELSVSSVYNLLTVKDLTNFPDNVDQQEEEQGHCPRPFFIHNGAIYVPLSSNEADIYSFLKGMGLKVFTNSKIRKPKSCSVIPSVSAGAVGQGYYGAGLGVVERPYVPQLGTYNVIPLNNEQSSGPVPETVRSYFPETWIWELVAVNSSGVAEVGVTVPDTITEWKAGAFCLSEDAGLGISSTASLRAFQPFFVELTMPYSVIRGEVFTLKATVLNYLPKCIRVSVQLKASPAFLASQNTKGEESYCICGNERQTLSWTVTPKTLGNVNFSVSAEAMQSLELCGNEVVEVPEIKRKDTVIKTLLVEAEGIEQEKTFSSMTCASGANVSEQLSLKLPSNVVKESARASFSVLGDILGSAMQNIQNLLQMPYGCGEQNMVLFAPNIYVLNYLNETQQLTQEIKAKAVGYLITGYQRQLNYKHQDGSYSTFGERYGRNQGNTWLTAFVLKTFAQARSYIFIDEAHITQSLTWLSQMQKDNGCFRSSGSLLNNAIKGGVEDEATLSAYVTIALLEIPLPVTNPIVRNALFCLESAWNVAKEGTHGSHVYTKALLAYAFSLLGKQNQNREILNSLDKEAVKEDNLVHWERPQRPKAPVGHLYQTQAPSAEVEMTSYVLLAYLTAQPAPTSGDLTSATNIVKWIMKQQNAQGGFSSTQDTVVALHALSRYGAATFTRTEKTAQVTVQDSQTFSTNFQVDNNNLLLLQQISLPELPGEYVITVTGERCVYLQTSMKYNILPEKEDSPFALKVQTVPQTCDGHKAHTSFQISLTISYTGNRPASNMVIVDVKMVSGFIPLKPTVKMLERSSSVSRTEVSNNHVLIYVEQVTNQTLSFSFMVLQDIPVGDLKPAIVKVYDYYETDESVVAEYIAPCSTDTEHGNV
UniProt P20962: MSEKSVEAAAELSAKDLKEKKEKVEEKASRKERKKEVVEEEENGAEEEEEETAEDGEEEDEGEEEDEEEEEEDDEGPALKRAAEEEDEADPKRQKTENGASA
UniProt Q15269: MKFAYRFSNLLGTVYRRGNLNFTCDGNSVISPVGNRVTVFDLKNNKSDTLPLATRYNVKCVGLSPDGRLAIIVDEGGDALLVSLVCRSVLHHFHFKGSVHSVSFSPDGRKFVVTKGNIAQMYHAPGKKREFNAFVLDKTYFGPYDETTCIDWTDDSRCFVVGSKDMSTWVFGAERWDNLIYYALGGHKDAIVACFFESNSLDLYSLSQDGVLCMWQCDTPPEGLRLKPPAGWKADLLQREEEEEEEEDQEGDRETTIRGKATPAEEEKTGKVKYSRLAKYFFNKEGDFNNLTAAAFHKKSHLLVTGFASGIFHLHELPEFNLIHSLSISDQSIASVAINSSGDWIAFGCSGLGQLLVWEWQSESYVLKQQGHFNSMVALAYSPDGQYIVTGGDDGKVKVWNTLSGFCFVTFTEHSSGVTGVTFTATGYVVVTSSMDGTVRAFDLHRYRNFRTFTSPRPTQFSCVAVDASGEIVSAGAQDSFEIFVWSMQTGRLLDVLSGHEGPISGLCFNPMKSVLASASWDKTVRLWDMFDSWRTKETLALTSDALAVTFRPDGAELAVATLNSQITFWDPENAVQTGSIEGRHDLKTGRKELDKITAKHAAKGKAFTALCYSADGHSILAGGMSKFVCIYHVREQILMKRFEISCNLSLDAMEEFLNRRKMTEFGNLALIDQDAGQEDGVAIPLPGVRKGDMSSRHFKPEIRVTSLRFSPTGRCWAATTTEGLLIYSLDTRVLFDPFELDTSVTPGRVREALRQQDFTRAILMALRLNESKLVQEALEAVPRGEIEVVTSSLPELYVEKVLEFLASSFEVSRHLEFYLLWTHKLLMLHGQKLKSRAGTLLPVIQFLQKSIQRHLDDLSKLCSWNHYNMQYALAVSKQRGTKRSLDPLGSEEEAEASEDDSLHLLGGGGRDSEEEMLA
UniProt Q8TAA3: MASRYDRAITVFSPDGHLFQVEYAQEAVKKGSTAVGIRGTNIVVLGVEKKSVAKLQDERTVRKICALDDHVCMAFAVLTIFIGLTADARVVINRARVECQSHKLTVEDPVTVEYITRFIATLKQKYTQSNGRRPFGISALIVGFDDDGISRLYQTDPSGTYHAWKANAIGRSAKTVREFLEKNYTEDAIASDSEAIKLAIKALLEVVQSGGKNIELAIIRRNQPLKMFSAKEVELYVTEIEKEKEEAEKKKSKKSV
UniProt P09417: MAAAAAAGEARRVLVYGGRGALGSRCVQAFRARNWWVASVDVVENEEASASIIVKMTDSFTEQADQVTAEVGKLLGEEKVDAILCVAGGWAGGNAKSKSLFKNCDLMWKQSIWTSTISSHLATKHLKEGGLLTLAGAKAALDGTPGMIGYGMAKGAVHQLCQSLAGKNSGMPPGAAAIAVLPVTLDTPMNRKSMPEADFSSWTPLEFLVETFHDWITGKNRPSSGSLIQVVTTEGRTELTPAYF
UniProt Q9UL46, whole entry, looked up: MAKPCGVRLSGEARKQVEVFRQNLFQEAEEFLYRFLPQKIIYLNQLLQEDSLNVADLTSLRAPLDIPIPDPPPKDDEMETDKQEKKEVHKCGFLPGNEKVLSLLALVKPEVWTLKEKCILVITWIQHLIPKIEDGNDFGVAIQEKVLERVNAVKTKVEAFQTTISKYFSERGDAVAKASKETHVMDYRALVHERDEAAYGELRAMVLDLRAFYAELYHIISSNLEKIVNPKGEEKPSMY
UniProt P20618: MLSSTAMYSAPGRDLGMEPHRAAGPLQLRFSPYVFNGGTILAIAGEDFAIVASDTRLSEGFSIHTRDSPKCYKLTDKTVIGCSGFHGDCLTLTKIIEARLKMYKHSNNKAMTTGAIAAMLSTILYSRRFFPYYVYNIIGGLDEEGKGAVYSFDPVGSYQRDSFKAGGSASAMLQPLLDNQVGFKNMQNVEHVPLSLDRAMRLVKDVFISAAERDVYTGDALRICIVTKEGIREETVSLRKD
UniProt O00487, whole entry, looked up: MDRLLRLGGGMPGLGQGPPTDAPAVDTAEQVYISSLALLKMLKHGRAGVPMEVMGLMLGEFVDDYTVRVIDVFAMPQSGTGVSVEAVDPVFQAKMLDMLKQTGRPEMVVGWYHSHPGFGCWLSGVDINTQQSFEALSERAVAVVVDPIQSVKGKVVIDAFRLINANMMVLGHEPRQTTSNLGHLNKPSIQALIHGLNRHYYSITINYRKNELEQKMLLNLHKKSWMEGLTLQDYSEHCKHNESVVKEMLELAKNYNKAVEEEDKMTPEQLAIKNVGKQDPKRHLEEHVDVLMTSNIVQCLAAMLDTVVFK
UniProt Q3MIT2: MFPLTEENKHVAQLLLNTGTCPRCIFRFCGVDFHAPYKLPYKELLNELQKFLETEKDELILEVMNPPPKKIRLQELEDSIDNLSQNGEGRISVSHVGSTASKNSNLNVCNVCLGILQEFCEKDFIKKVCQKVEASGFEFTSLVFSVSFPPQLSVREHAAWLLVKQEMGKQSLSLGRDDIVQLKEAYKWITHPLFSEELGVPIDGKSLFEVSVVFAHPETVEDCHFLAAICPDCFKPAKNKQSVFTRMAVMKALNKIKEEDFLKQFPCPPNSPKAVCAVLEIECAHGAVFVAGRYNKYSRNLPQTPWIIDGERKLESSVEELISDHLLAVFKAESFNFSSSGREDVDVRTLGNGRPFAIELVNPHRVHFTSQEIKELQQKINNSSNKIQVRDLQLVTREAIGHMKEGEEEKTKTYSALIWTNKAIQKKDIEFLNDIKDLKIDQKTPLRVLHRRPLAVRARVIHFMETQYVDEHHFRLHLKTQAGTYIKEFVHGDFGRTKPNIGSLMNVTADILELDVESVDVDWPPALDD
UniProt Q9BVG9: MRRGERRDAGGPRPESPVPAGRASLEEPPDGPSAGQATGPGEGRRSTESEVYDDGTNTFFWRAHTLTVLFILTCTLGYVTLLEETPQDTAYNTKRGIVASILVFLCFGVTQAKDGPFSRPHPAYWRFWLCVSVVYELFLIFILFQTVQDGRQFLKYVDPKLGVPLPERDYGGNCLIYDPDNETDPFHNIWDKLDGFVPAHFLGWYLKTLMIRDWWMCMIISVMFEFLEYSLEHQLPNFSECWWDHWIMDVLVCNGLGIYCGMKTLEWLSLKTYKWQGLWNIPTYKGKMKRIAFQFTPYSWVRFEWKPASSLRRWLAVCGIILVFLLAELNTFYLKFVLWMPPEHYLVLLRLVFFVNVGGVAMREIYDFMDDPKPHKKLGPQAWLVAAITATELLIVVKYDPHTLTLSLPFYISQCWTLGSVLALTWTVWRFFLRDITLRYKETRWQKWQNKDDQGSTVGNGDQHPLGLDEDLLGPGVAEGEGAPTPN
UniProt Q9BRP8: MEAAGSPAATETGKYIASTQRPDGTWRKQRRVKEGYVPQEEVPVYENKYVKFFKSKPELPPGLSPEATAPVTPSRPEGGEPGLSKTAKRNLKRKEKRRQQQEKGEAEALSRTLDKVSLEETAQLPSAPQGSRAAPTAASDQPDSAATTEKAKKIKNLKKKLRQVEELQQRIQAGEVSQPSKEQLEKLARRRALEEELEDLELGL

Compound in the first experiment: C/C(=N\NC(=O)C1=CC(=CC=C1)S(=O)(=O)N2CCOCC2)/C3=C(C=CC(=C3)Cl)O
Kind of experiment: log2 fold change, soluble protein after heating vs DMSO (PISA); higher = thermal stabilisation; K562 cells, 10 uM, 30 min; active = over 0.2 and 3.5 SD of the protein, either way, in both replicates (recomputed). In outline:
(§1)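 K562 cells at 2×10^6 cells/mL were treated with 10 μM compound for 30 min. Aliquots were heated for 3 min across 48°C-58°C, pooled, and extracted in PBS with 0.5% NP-40 at 4°C; soluble protein was the supernatant after 21,000xg for 90 min. Soluble protein was quantified by TMTpro 16plex LC-MS/MS with channel sums equalised, and reported as log2 fold change in thermal stability against DMSO controls, with values from duplicates.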
For the target PXMP2 (UniProt Q9NR77), the log2 fold change is inactive: 0.044.
PSPH (UniProt P78330): the log2 fold change was inactive: 0.075.
For the target QTRT1 (UniProt Q9BXR0), the log2 fold change was inactive: 0.054.
For the target PUS7 isoform 2 (UniProt Q96PZ0), the log2 fold change was inactive: 0.027.
Still for that read-out and setting: for PZP (UniProt P20742) the value was inactive: -0.088; for QPCTL (UniProt Q9NXS2), inactive: -0.038.
Turning to PTMS (UniProt P20962), the log2 fold change is inactive: -0.021.
Regarding PWP2 (UniProt Q15269), the log2 fold change was inactive: -0.046.
PSMA8 (UniProt Q8TAA3): the log2 fold change is inactive: -0.016.
As for QDPR (UniProt P09417), the log2 fold change was inactive: -0.041.
With PSME1 (UniProt Q06323), the log2 fold change was inactive: 0.035.
On the same count and under the same terms, in the case of PSME2 (UniProt Q9UL46) it was inactive: -0.037; in that of PRTFDC1 (UniProt Q9NRG1), inactive: 0.028.
Consider PSMB1 (UniProt P20618), for which the log2 fold change was inactive: -0.044.
Regarding PTPRA (UniProt P18433), the log2 fold change is inactive: 0.06.
Same read-out and setting: for PSMD4 (UniProt P55036) the value was inactive: -0.06; for PUS7L (UniProt Q9H0K6), inactive: -0.03.
PSMD14 (UniProt O00487): the log2 fold change was inactive: -0.021.
Turning to PUM2 (UniProt Q8TB72), the log2 fold change was inactive: -0.022.
As for PTPRC (UniProt P08575), the log2 fold change is inactive: -0.005.
On to QTRT2 isoform 4 (UniProt Q9H974), for which the log2 fold change was inactive: -0.011.
For PUS10 (UniProt Q3MIT2), the log2 fold change is inactive: 0.1.
The same measure, in the same setting: for PSMG4 isoform 2 (UniProt Q5JS54) the value was inactive: 0.056; for PYCARD (UniProt Q9ULZ3), inactive: 0.033; for PSMA7 (UniProt O14818), inactive: -0.02.
In the case of PTDSS2 (UniProt Q9BVG9), the log2 fold change was inactive: 0.01.
In the case of QSOX2 (UniProt Q6ZRP7), the log2 fold change is inactive: 0.027.
For the target PTK7 isoform 6 (UniProt Q13308), the log2 fold change is inactive: -0.011.
As to PYM1 (UniProt Q9BRP8), the log2 fold change is inactive: -0.127.
As to PSMA1 isoform 2 (UniProt P25786), the log2 fold change is inactive: -0.054.
Turning to PSMA5 (UniProt P28066), the log2 fold change is inactive: -0.028.
As to PTCD3 (UniProt Q96EY7), the log2 fold change is inactive: 0.072.
PXN (UniProt P49023): the log2 fold change is inactive: -0.044.
For the target PSAP isoform 3 (UniProt P07602), the log2 fold change was inactive: 0.048.

Compound in another experiment: C1=CC(=C(C=C1Cl)C2=NC3=NC=CN=C3C(=N2)NC4=CC=NC=C4)F
Described as above. The method in brief:
as §1
With PXMP2 (UniProt Q9NR77), the log2 fold change is inactive: 0.
With PSPH (UniProt P78330), the log2 fold change is inactive: 0.045.
Turning to QTRT1 (UniProt Q9BXR0), the log2 fold change is inactive: 0.066.
For PUS7 isoform 2 (UniProt Q96PZ0), the log2 fold change is inactive: -0.018.
Still for that read-out and setting: for PZP (UniProt P20742) the value was inactive: 0.1; for QPCTL (UniProt Q9NXS2), inactive: -0.014.
Still for that read-out and setting: in the case of PTMS (UniProt P20962) it was inactive: 0.082; in that of PWP2 (UniProt Q15269), inactive: 0.066.
On the same count and under the same terms, in the case of PSMA8 (UniProt Q8TAA3) it was inactive: -0.04.
For the target QDPR (UniProt P09417), the log2 fold change was inactive: 0.043.
Still for that read-out and setting: for PSME1 (UniProt Q06323) the value was inactive: 0.099; for PSME2 (UniProt Q9UL46), inactive: 0.015; for PRTFDC1 (UniProt Q9NRG1), inactive: 0.038.
Take PSMB1 (UniProt P20618): the log2 fold change was inactive: -0.022.
Consider PTPRA (UniProt P18433), for which the log2 fold change was inactive: 0.017.
The same measure, in the same setting: in the case of PSMD4 (UniProt P55036) it was inactive: -0.038.
Same read-out and setting: in the case of PUS7L (UniProt Q9H0K6) it was inactive: 0.006.
Same read-out and setting: for PSMD14 (UniProt O00487) the value was inactive: -0.027.
Turning to PUM2 (UniProt Q8TB72), the log2 fold change is inactive: -0.095.
The same measure, in the same setting: in the case of PTPRC (UniProt P08575) it was inactive: 0.061; in that of QTRT2 isoform 4 (UniProt Q9H974), inactive: 0.053.
With PUS10 (UniProt Q3MIT2), the log2 fold change was inactive: 0.087.
Same read-out and setting: for PSMG4 isoform 2 (UniProt Q5JS54) the value was inactive: 0.158; for PYCARD (UniProt Q9ULZ3), inactive: 0.011; for PSMA7 (UniProt O14818), inactive: 0.009.
The same measure, in the same setting: for PTDSS2 (UniProt Q9BVG9) the value was inactive: 0.056.
Consider QSOX2 (UniProt Q6ZRP7), for which the log2 fold change is inactive: 0.051.
Regarding PTK7 isoform 6 (UniProt Q13308), the log2 fold change was inactive: 0.179.
With PYM1 (UniProt Q9BRP8), the log2 fold change was inactive: -0.15.
PSMA1 isoform 2 (UniProt P25786): the log2 fold change is inactive: -0.012.
PSMA5 (UniProt P28066): the log2 fold change was inactive: 0.026.
For PTCD3 (UniProt Q96EY7), the log2 fold change was inactive: 0.009.
With PXN (UniProt P49023), the log2 fold change is inactive: 0.064.
On to PSAP isoform 3 (UniProt P07602), for which the log2 fold change is inactive: 0.087.

Compound in a further experiment: C1=CC(=CC=C1C2=NC3=C(N2)C=C(C=C3)C(=O)N)OC4=CC=C(C=C4)Cl
Described as above. The method in brief:
as §1
Turning to PXMP2 (UniProt Q9NR77), the log2 fold change is inactive: -0.021.
Turning to PSPH (UniProt P78330), the log2 fold change is inactive: -0.009.
On the same count and under the same terms, in the case of QTRT1 (UniProt Q9BXR0) it was inactive: 0.031.
On to PUS7 isoform 2 (UniProt Q96PZ0), for which the log2 fold change is inactive: 0.017.
Still for that read-out and setting: in the case of PZP (UniProt P20742) it was inactive: 0.145; in that of QPCTL (UniProt Q9NXS2), inactive: 0.083.
On to PTMS (UniProt P20962), for which the log2 fold change is inactive: -0.012.
PWP2 (UniProt Q15269): the log2 fold change is inactive: 0.018.
On the same count and under the same terms, for PSMA8 (UniProt Q8TAA3) the value was inactive: 0.011.
Consider QDPR (UniProt P09417), for which the log2 fold change is inactive: -0.012.
Take PSME1 (UniProt Q06323): the log2 fold change is inactive: -0.024.
PSME2 (UniProt Q9UL46): the log2 fold change was inactive: -0.001.
With PRTFDC1 (UniProt Q9NRG1), the log2 fold change was inactive: 0.
Consider PSMB1 (UniProt P20618), for which the log2 fold change is inactive: 0.044.
Take PTPRA (UniProt P18433): the log2 fold change was inactive: -0.033.
Regarding PSMD4 (UniProt P55036), the log2 fold change was inactive: 0.029.
The same measure, in the same setting: for PUS7L (UniProt Q9H0K6) the value was inactive: 0.037; for PSMD14 (UniProt O00487), inactive: 0.024; for PUM2 (UniProt Q8TB72), inactive: 0.025.
For PTPRC (UniProt P08575), the log2 fold change was inactive: -0.016.
On the same count and under the same terms, in the case of QTRT2 isoform 4 (UniProt Q9H974) it was inactive: 0.027.
Still for that read-out and setting: for PUS10 (UniProt Q3MIT2) the value was inactive: -0.18; for PSMG4 isoform 2 (UniProt Q5JS54), inactive: -0.012; for PYCARD (UniProt Q9ULZ3), inactive: 0.001.
PSMA7 (UniProt O14818): the log2 fold change was inactive: 0.019.
The same measure, in the same setting: in the case of PTDSS2 (UniProt Q9BVG9) it was inactive: -0.022.
With QSOX2 (UniProt Q6ZRP7), the log2 fold change was inactive: 0.048.
For the target PTK7 isoform 6 (UniProt Q13308), the log2 fold change was inactive: -0.003.
PYM1 (UniProt Q9BRP8): the log2 fold change is inactive: 0.025.
Consider PSMA1 isoform 2 (UniProt P25786), for which the log2 fold change is inactive: -0.025.
In the case of PSMA5 (UniProt P28066), the log2 fold change was inactive: -0.008.
The same measure, in the same setting: for PTCD3 (UniProt Q96EY7) the value was inactive: 0.147; for PXN (UniProt P49023), inactive: 0.028.
On to PSAP isoform 3 (UniProt P07602), for which the log2 fold change was inactive: 0.031.

The record behind these values is the supplement of paper PMC10849652.
